Results are given in words; binding and its absence hold for the method and conditions named. Some results given as binding are weak or reduced against the parent protein; the word gives no strength.
Target: Retinoid X receptor α ligand-binding domain (RXRα-LBD), His-tagged, purified (human) (UniProt P19793)
Assay: crystal structure; RXRα-LBD with Rut and SRC1 peptide; 8% v/v Tacsimate pH 8.0, 20% (w/v) PEG3350, 4°C; 2.0 Å; both purified

By UniProt entry, the sequences of proteins in these tests, tags left out. Residues count along the entry.
UniProt P19793, residues 229-458: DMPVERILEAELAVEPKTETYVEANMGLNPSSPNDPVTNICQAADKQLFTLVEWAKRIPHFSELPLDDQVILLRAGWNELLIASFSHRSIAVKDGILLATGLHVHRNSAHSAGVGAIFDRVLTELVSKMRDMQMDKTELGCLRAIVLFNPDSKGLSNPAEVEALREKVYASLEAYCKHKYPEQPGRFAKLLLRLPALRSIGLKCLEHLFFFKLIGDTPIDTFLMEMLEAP

KHKILHRLLQDSS [SRC1 peptide (…)]
binding: binds
